According to PubChem BioAssay AID1347076 (National Center for Advancing Translational Sciences (NCATS), 2019):
Several values for one entry are separate records, joined by “and”; a condition that tells them apart may be missing. Identical values can stand only once. The campaign covered roughly 400,000 compounds. About 13,000 (3.2%) were called active. The inconclusive results got no clear call from the source; some entries with a clear call stand among them for comparison. Calls follow the shape of the dose curve; as a rule, active = well fitted cell-killing curve with a large enough effect; inconclusive = small, poorly fitted or top-dose-only effect, or effect the other way; inactive = flat fitted curve, though single readings scatter. A potency beside an inconclusive call is a rough fit, not a confirmed value.

Assay: qHTS assay for MDR1-selective chemotherapeutics: Primary screen using the drug-selected MDR subline cells KB-V1; also: nearly all actives have a fitted effect of over 60% in size
Details: KB-V1 MDR cells viability, CellTiter-Glo, 72 h; activity change, negative = cytotoxicity: at 46.1 µM (top of the series)
Procedure, shortened: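 Cytotoxicity via CellTiter-Glo luminescence after 72 h compound exposure at 37 degrees C. Cells: drug-selected KB-V1 line, DMEM phenol-red free plus 10% FBS. Compounds tested at multiple concentrations; normalized data fitted to concentration-effect curves.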
% is scaled to controls: 0 for no effect and ±100 for the full control effect; potency is read from the fitted curve at half-maximal effect.

SMILES	Potency	activity change, negative = cytotoxicity
COc1ccccc1N(CC(O)CN1C(C)CCCC1C)S(=O)(=O)c1ccccc1 (stereo not drawn)	inactive	
Cc1cccc(NC(=O)Cn2c(=O)n(CC3CCC(C(=O)NCCc4ccccc4)CC3)c(=O)c3ccccc32)c1 (stereo not drawn)	inactive	
Cc1cccc(N(Cc2cc(=O)[nH]c3ccccc23)C(=O)CCl)c1	inconclusive: 18.4 µM [cytotoxic, single point]	
CCOC(=O)C1=C(CN2c3ccccc3CC2C)NC(=O)NC1c1ccccc1 (stereo not drawn)	inconclusive: 25.9 µM [cytotoxic, partial curve, poor fit]	
COc1ccc(N2CCN(C(=O)C(CC(C)C)NS(=O)(=O)c3ccc4nc(C)sc4c3)CC2)cc1 (stereo not drawn)	inactive	
Cc1cc(Nc2ccc(Cl)cc2)n2nnnc2n1	inconclusive: 2.59 µM [cytotoxic, partial curve, poor fit]	
CCOC(=O)C(CCCOc1cccc(OC)c1)C(=O)OCC		inconclusive: -30.1% [cytotoxic]
Cc1ccc(-c2cc(C(=O)Nc3cc(C)ccc3O)no2)cc1	inconclusive: 29.1 µM [rising, single point]	
CCCC(O)(c1ccc(CC)cc1)C(CN1CCOCC1)c1ccccc1 (stereo not drawn)	inconclusive: 32.6 µM [cytotoxic, single point]	
CCCCc1ccc(/C(C)=N/Nc2cc(N3CCOCC3)nc(C)n2)cc1	inconclusive: 16.4 µM [cytotoxic, single point]	
CN=c1sc2ccccc2n1CC(O)COCc1ccco1 (stereo not drawn)	inactive	
COc1ccc(/C=C2\SC(=O)N(CCC(=O)Nc3ccc(S(=O)(=O)Nc4nccs4)cc3)C2=O)cc1	inconclusive: 20.6 µM [rising, single point]	
COC(=O)c1ccc(COc2ccccc2/C=C(\C#N)C(=O)Nc2ccc(C)cc2C)cc1	inconclusive: 3.26 µM [rising, full curve, poor fit]	
COc1ccccc1-c1cc(C2CC2)nc(N)c1C#N	inconclusive: 29.1 µM [cytotoxic, single point]	
Cc1ccc(-c2noc(CCC(=O)NCc3ccco3)n2)cc1	inconclusive: 29.1 µM [cytotoxic, single point]	
O=C(CSc1ccccc1)NNC(=O)c1ccccc1O	inactive	
CCN(CC)C(=O)c1cccc(-c2csc(C(O)c3cccc(Cl)c3)n2)c1 (stereo not drawn)	inconclusive: 18.4 µM [cytotoxic, partial curve, poor fit]	
COC(=O)c1ccccc1NC(=O)CSc1nc2ccccc2nc1Cc1ccc(F)cc1	inconclusive: 18.4 µM [rising, partial curve, poor fit]	
CCOC(=O)N1CCN(C(=O)C(C)N(c2ccc(Oc3ccccc3)cc2)S(C)(=O)=O)CC1 (stereo not drawn)	inconclusive: 20.6 µM [cytotoxic, single point]	
NC(=S)N=Nc1c(O)n(CCCl)c2ccc(Cl)cc12	active: 13 µM	
CCOC(=O)c1c(-c2ccccc2)oc2ccc(OCC(O)CNCCN(C)C)cc12 (stereo not drawn)	inconclusive: 29.1 µM [cytotoxic, single point]	
CSc1nc2ccc(NC(=O)c3ccccn3)cc2s1	inconclusive: 23.1 µM [cytotoxic, single point]	

SMILES	Potency	activity change, negative = cytotoxicity
CCOc1ccc(C2=Nn3c(nnc3-c3ccccn3)SC2)cc1	inconclusive: 18.4 µM [cytotoxic, single point]	
Cc1ccc(S(=O)(=O)N(C)c2cc(S(=O)(=O)Nc3ccncc3)c(C)cc2C)cc1	inconclusive: 20.6 µM [rising, single point]	
CSCCC(NC(=O)c1ccccc1Cl)C(=O)OCC(=O)N1CCCC1=O (stereo not drawn)	inconclusive: 32.6 µM [rising, single point]	
O=C(Cn1cnc2cc([N+](=O)[O-])ccc2c1=O)NCCc1ccc(Cl)cc1	inconclusive: 14.6 µM [cytotoxic, partial curve]	
C=CCOc1c(Br)cc(CNc2ccc(NC(=O)CCC)cc2)cc1OCC	inactive	
COc1cc(NC(=O)c2cc(-c3cc(F)ccc3OC(C)C)n[nH]2)cc(OC)c1OC	inconclusive: 20.6 µM [cytotoxic, single point]	
O=C(CSc1nc2ccccc2o1)NC(=O)NCc1ccco1	inactive	
CC(=O)Nc1ccc(S(=O)(=O)NCCC(=O)OCC(=O)NCc2ccccc2)cc1	inconclusive: 14.6 µM [rising, partial curve, poor fit]	
CC(C)C(=O)Nc1cccc(C(=O)OCC(=O)c2ccc(Cl)cc2Cl)c1	active: 14.6 µM	
Nc1scn[n+]1Cc1cccc2cccnc12	inconclusive: 29.1 µM [cytotoxic, single point]	
C=CCOC(=O)N1CCC2CC1c1cc(-c3cccc(C)c3)ccc12 (stereo not drawn)	inactive	
Cc1nnc(NC(=O)CSc2nccn2Cc2ccccc2)s1	inactive	
CCC(C)Sc1ccc(-c2nc3cc(C)ccn3c2NC2CCCCC2)cc1 (stereo not drawn)	inconclusive: 13 µM [cytotoxic, partial curve, poor fit] and inconclusive: 29.1 µM [cytotoxic, single point]	
COc1ccc(CNC(=O)c2c(O)c3cccc4c3n(c2=O)CCC4)cc1	active: 14.6 µM	
Cc1ccsc1C(=O)OCc1csc(-c2ccccc2)n1	inconclusive: 1.46 µM [cytotoxic, full curve]	
O=C(NCCN1CCC(n2c(=O)[nH]c3ccccc32)CC1)N1c2ccccc2Sc2ccccc21	inactive	
COc1cccc(C2C(C(=O)Nc3nc4ccccc4s3)=C(C)NC3=C2C(=O)CC(C)(C)C3)c1OC (stereo not drawn)	inconclusive: 29.1 µM [cytotoxic, single point]	
Cc1ccccc1NC(=O)Cn1nc(C)c2ccccc2c1=O	inconclusive: 0.0291 µM [rising, full curve]	
CC1Cc2cc(S(=O)(=O)N3CCC(C(=O)NCc4ccco4)CC3)ccc2N1C(=O)C1CCC1 (stereo not drawn)	inconclusive: 14.6 µM [cytotoxic, single point]	
Cc1cc(NC(=O)C(C)Sc2nnc(NCc3ccco3)s2)no1 (stereo not drawn)	inactive	
O=C1NC[C@@H](CCCCN2C[C@H](Cc3ccccc3)N(Cc3ccccc3)C(=O)C2=O)N(CCc2ccccc2)C1=O	inactive	
